Data published in the supplement of paper PMC10849652.
This is one part of the list.

Sequences of proteins named here, by UniProt entry; tags and fusion partners are left off. A change or cut given only in a name is not applied to a line headed by its entry.
UniProt O95163: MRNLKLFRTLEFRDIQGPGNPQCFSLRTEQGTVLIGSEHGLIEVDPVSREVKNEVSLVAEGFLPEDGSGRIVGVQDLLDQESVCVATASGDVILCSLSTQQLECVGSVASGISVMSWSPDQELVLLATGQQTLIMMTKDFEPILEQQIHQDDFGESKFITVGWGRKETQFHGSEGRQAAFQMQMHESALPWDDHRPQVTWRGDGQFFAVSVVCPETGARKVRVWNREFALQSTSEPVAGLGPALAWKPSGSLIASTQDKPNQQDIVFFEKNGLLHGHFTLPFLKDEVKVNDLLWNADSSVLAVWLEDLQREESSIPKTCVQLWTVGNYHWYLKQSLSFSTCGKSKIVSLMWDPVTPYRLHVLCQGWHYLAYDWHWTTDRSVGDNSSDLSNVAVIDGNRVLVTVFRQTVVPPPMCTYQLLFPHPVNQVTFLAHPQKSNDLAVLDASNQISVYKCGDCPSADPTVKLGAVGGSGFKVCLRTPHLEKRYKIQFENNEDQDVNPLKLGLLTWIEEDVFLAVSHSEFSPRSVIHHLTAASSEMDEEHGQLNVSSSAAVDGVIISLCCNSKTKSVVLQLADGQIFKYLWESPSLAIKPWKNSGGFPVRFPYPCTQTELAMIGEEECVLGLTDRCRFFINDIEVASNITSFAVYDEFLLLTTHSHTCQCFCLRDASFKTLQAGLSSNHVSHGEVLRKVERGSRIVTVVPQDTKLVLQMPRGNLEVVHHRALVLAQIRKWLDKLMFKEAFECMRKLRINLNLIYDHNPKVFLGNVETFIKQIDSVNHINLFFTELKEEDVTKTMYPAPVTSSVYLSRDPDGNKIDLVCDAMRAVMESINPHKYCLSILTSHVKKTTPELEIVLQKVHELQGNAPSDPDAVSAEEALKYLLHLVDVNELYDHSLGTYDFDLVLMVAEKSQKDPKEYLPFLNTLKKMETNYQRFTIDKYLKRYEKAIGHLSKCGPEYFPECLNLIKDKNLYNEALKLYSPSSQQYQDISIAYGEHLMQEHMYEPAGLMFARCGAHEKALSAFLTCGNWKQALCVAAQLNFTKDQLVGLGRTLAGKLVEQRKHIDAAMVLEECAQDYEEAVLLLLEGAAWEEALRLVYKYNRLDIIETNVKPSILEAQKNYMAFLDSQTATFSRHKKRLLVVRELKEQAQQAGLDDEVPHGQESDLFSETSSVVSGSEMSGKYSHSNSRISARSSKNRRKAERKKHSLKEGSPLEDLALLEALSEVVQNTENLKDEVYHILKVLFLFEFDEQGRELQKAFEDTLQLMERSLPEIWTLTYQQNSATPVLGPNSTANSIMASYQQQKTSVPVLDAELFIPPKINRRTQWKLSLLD
UniProt O94919: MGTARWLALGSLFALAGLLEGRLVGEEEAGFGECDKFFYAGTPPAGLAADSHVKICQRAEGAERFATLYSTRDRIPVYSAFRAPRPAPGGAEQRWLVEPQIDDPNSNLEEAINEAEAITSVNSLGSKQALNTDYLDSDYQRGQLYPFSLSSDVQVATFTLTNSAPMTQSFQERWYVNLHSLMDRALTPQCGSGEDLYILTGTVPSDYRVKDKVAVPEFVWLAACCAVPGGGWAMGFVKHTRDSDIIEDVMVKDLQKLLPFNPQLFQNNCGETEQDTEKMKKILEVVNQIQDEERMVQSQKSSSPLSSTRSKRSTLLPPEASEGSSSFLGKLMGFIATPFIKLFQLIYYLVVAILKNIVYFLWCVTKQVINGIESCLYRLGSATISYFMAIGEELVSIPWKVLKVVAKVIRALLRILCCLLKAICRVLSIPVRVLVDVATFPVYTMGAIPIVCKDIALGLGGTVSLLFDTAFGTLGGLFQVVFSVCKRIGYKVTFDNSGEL
UniProt Q8TE02: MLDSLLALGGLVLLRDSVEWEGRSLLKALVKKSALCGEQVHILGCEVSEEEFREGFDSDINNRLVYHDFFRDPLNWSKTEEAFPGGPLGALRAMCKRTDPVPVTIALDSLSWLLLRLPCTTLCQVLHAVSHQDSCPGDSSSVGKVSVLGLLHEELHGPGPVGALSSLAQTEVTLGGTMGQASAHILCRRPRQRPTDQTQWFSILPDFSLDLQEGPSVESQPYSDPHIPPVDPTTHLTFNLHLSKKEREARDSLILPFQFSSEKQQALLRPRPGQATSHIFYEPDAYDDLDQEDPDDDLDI
UniProt Q7L5Y1: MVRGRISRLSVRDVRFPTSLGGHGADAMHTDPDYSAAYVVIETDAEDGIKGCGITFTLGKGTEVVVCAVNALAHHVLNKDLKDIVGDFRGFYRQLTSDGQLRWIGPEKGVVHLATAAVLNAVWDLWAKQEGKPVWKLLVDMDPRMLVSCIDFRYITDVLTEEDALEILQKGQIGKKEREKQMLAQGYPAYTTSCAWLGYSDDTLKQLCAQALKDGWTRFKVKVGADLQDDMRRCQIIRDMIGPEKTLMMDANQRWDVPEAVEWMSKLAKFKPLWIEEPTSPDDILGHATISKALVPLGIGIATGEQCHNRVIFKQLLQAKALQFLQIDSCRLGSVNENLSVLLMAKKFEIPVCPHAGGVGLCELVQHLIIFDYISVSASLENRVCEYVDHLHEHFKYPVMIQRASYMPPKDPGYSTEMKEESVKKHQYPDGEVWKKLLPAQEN
UniProt Q14152, whole entry, looked up: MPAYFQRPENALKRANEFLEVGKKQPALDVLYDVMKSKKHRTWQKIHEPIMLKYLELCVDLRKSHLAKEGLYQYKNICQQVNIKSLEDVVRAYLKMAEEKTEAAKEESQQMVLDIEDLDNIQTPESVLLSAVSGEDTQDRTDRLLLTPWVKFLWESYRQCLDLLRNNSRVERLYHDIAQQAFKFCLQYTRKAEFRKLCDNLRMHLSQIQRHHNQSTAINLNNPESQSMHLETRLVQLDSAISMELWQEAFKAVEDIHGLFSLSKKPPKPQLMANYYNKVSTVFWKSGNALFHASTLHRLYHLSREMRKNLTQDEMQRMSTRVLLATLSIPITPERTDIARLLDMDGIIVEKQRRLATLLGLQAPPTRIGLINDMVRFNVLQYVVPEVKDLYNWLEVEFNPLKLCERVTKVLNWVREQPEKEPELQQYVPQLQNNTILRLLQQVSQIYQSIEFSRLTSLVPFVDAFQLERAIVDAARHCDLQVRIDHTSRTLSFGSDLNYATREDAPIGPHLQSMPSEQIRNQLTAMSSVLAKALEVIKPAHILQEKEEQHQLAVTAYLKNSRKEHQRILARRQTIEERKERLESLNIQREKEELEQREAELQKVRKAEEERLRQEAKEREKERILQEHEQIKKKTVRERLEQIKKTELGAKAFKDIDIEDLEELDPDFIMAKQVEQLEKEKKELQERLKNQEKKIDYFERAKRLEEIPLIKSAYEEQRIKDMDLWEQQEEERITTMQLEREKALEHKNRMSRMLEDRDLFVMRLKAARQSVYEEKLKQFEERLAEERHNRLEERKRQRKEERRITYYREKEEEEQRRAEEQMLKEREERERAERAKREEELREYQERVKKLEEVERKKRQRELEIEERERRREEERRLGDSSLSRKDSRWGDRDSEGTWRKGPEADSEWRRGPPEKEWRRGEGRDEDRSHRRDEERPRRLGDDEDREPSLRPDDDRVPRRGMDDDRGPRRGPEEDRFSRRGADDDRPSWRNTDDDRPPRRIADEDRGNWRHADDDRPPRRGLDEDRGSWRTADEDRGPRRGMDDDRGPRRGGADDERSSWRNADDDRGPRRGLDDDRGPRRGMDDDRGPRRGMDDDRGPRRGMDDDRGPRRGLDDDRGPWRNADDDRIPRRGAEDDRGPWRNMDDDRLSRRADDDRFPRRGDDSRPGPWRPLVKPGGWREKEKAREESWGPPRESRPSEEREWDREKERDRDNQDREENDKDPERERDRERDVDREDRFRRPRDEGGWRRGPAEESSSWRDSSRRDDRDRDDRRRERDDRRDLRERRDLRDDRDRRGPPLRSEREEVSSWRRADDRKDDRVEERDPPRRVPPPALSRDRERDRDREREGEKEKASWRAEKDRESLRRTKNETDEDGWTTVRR
UniProt Q96RT1: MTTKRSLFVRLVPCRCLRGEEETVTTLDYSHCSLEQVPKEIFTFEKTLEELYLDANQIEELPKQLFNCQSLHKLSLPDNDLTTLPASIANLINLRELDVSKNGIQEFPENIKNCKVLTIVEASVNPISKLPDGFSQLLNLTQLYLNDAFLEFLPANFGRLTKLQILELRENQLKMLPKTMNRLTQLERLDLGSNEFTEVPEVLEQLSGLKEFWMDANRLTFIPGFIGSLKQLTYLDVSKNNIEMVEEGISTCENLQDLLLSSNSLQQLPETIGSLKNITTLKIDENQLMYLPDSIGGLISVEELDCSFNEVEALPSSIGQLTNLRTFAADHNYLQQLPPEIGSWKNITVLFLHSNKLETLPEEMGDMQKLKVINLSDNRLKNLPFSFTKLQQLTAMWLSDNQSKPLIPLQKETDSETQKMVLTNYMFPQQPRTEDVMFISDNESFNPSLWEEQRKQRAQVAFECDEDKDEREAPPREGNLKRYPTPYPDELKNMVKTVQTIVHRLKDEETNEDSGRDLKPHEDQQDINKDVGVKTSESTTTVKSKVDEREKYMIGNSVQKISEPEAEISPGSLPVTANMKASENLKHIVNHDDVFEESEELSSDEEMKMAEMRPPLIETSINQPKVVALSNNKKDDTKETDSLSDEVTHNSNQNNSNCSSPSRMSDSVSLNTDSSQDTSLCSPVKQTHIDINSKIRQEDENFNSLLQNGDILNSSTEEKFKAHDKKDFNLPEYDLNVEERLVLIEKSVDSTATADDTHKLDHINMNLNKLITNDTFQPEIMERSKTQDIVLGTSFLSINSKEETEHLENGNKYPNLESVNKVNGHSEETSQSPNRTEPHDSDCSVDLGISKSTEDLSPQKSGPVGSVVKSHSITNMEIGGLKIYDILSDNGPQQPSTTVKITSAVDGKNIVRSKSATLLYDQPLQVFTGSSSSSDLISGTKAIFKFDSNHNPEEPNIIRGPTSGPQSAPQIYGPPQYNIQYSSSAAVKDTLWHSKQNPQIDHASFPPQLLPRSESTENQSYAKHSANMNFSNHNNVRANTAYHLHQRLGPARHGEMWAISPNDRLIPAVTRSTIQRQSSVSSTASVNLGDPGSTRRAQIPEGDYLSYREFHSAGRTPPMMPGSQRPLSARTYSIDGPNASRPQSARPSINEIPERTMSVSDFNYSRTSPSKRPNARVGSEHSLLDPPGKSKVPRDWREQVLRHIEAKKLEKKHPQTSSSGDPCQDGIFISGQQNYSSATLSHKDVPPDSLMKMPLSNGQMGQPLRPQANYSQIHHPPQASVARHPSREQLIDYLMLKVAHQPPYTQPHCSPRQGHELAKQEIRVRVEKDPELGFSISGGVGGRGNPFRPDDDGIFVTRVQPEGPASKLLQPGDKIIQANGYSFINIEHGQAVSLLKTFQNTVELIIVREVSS
UniProt Q5J8M3, whole entry, looked up: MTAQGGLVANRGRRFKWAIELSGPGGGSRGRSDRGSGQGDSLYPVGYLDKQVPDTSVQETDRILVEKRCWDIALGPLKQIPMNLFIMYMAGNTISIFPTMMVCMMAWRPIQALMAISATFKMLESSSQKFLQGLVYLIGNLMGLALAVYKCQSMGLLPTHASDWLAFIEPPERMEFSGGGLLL
UniProt Q9Y262, whole entry, looked up: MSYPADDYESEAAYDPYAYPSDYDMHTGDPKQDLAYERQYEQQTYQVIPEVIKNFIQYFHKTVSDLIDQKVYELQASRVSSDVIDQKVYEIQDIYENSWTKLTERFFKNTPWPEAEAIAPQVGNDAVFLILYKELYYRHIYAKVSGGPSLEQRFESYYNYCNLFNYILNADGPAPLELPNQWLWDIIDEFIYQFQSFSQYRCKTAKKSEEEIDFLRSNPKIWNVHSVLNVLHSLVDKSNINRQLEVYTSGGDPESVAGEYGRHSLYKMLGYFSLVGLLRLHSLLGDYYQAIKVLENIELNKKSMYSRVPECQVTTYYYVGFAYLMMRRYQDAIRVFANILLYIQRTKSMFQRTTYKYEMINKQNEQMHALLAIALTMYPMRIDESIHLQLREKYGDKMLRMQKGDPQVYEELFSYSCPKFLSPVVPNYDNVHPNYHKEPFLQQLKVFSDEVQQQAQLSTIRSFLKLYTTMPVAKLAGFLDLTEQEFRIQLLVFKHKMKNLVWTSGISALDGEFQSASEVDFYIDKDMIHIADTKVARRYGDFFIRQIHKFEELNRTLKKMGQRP
UniProt P07099: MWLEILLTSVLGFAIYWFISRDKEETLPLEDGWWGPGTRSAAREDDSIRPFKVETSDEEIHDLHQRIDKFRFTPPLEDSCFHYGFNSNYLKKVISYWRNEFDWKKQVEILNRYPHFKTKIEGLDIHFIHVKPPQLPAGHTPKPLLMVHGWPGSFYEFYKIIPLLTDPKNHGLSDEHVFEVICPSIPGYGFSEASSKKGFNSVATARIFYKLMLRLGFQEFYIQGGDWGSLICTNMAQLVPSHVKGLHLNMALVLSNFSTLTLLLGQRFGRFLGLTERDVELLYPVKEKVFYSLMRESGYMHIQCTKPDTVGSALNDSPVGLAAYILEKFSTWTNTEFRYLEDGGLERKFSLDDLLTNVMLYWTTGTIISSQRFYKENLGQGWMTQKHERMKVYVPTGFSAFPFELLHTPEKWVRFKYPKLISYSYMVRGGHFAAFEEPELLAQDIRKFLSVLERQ

How the values were obtained:
Experiment in all cases: log2 fold change, soluble protein after heating vs DMSO (PISA); higher = thermal stabilisation; K562 lysate, 10 uM; active = over 0.2 and 3.5 SD of the protein, either way, in both replicates (recomputed)
alvocidib = compound: CN1CC[C@H](c2c(O)cc(O)c3c(=O)cc(-c4ccccc4Cl)oc23)[C@H](O)C1 [alvocidib]
Method in brief: (§1)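 Following dounce homogenisation of K562 pellets in PBS pH 7.4 with 1 mM MgCl2, crude extract at 1 mg/mL protein was incubated for 30 min with 10 μM compound. Aliquots were then heated for 3 min over 48°C-58°C and pooled, NP-40 was added to 0.5% at 4°C, and soluble protein was recovered as the supernatant at 21,000xg for 90 min. Channel-sum-equalised TMTpro 16plex LC-MS/MS quantified this protein. Each value, from duplicates, is a log-two fold change in thermal stability relative to solvent controls.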

Tubastatin A = compound: CN1CCc2c(c3ccccc3n2Cc2ccc(C(=O)NO)cc2)C1 [Tubastatin A]
Method in brief: as §1

[1] = compound: CNC(=O)C1=CC=CC=C1NC2=NC(=NC=C2Cl)NC3=C(C=C(C=C3)N4CCOCC4)OC
Method in brief: as §1

defactinib = compound: CNC(=O)c1ccc(Nc2ncc(C(F)(F)F)c(NCc3nccnc3N(C)S(C)(=O)=O)n2)cc1 [defactinib]
Method in brief: as §1

[2] = compound: CNc1nc(-c2ccc3c(N)n[nH]c3c2)cc(N2C[C@@H](C(=O)NC3CCCCC3)CC[C@H]2C)n1
Method in brief: as §1

encorafenib = compound: COC(=O)N[C@@H](C)CNc1nccc(-c2cn(C(C)C)nc2-c2cc(Cl)cc(NS(C)(=O)=O)c2F)n1 [encorafenib]
Method in brief: as §1

[3] = compound: COC(=O)[C@H](CCSC)NC(=O)C1=C(C=C(C=C1)NC[C@H](CS)N)C2=CC=CC=C2
Method in brief: as §1

alisertib = compound: COc1cc(Nc2ncc3c(n2)-c2ccc(Cl)cc2C(c2c(F)cccc2OC)=NC3)ccc1C(=O)O [alisertib]
Method in brief: as §1

[4] = compound: COc1cc2nc(-c3cc(F)ccc3O)nc(N[C@@H]3CNC[C@H]3C(C)(C)O)c2cc1OC
Method in brief: as §1

gefitinib = compound: COc1cc2ncnc(Nc3ccc(F)c(Cl)c3)c2cc1OCCCN1CCOCC1 [gefitinib]
Method in brief: as §1

lapatinib = compound: CS(=O)(=O)CCNCc1ccc(-c2ccc3ncnc(Nc4ccc(OCc5cccc(F)c5)c(Cl)c4)c3c2)o1 [lapatinib]
Method in brief: as §1

pictilisib = compound: CS(=O)(=O)N1CCN(Cc2cc3nc(-c4cccc5[nH]ncc45)nc(N4CCOCC4)c3s2)CC1 [pictilisib]
Method in brief: as §1

crizotinib = compound: C[C@@H](Oc1cc(-c2cnn(C3CCNCC3)c2)cnc1N)c1c(Cl)ccc(F)c1Cl [crizotinib]
Method in brief: as §1

[5] = compound: C[C@H](C1=CC=C(C=C1)C(=O)NC2=C3C=CNC3=NC=C2)N
Method in brief: as §1

duvelisib = compound: C[C@H](Nc1ncnc2nc[nH]c12)c1cc2cccc(Cl)c2c(=O)n1-c1ccccc1 [duvelisib]
Method in brief: as §1

gandotinib = compound: Cc1cc(Nc2cc(CN3CCOCC3)c3nc(C)c(Cc4ccc(Cl)cc4F)n3n2)n[nH]1 [gandotinib]
Method in brief: as §1

tozasertib = compound: Cc1cc(Nc2cc(N3CCN(C)CC3)nc(Sc3ccc(NC(=O)C4CC4)cc3)n2)n[nH]1 [tozasertib]
Method in brief: as §1

doramapimod = compound: Cc1ccc(-n2nc(C(C)(C)C)cc2NC(=O)Nc2ccc(OCCN3CCOCC3)c3ccccc23)cc1 [doramapimod]
Method in brief: as §1

bafetinib = compound: Cc1ccc(NC(=O)c2ccc(CN3CC[C@H](N(C)C)C3)c(C(F)(F)F)c2)cc1Nc1nccc(-c2cncnc2)n1 [bafetinib]
Method in brief: as §1

[6] = compound: Cc1cccc(CC(=O)N2CCc3c2ccc(-c2cn(C)c4ncnc(N)c24)c3F)n1
Method in brief: as §1

Measured: log2 fold change

EIF4G3, A0A0U1RQK7
inactive: alvocidib 0.013 | Tubastatin A -0.072 | [1] 0.021 | defactinib 0.031 | [2] 0.015 | encorafenib 0.024 | [3] 0.086 | alisertib 0.018 | [4] 0.022 | gefitinib 0.02 | lapatinib 0.015 | pictilisib -0.007 | crizotinib 0.007 | [5] -0.051 | duvelisib 0.006 | gandotinib -0.043 | tozasertib -0.015 | doramapimod -0.001 | bafetinib -0.028 | [6] 0.086

ELP1 (UniProt O95163)
inactive: alvocidib -0.035 | Tubastatin A -0.006 | [1] -0.005 | defactinib -0.017 | [2] 0.009 | encorafenib -0.005 | [3] -0.017 | alisertib -0.005 | [4] 0.005 | gefitinib -0.013 | lapatinib -0.028 | pictilisib -0.002 | crizotinib -0.013 | [5] -0.095 | duvelisib 0.025 | gandotinib 0.041 | tozasertib -0.008 | doramapimod 0.025 | bafetinib -0.026 | [6] 0.058

EIF2B2 (UniProt P49770)
inactive: alvocidib 0.004 | Tubastatin A -0.061 | [1] 0.014 | defactinib -0.013 | [2] -0.063 | encorafenib 0.036 | [3] -0.066 | alisertib 0.025 | [4] 0.02 | gefitinib 0.01 | lapatinib -0.038 | pictilisib -0.021 | crizotinib -0.006 | [5] 0.02 | duvelisib 0.01 | gandotinib -0.093 | tozasertib 0.025 | doramapimod 0.004 | bafetinib -0.014 | [6] -0.01

ENO3 (UniProt P13929)
inactive: alvocidib -0.101 | Tubastatin A 0.038 | [1] 0.038 | defactinib 0.024 | [2] 0.192 | encorafenib -0.073 | [3] 0.025 | alisertib -0.017 | [4] -0.001 | gefitinib -0.006 | lapatinib 0.002 | pictilisib -0.135 | crizotinib -0.06 | [5] -0.306 | duvelisib 0.041 | gandotinib 0.214 | tozasertib 0.01 | doramapimod 0.088 | bafetinib 0.077 | [6] 0.128

ENDOD1 (UniProt O94919)
inactive: alvocidib 0.068 | Tubastatin A 0.062 | [1] -0.01 | defactinib 0.008 | [2] 0.008 | encorafenib 0.029 | [3] -0.003 | alisertib -0.055 | [4] 0.033 | gefitinib 0.101 | lapatinib 0.002 | pictilisib -0.05 | crizotinib 0.082 | [5] 0.101 | duvelisib -0.081 | gandotinib -0.08 | tozasertib 0.023 | doramapimod -0.01 | bafetinib 0.011 | [6] -0.055

EIF3I (UniProt Q13347)
inactive: alvocidib 0.034 | Tubastatin A -0.126 | [1] 0.01 | defactinib 0.002 | [2] -0.043 | encorafenib -0.018 | [3] 0.156 | alisertib 0.003 | [4] 0.009 | gefitinib -0.03 | lapatinib -0.009 | pictilisib -0.015 | crizotinib -0.004 | [5] -0.003 | duvelisib -0.009 | gandotinib -0.022 | tozasertib 0.008 | doramapimod 0.029 | bafetinib -0.052 | [6] 0.01

ELP5 isoform 4 (UniProt Q8TE02)
inactive: alvocidib -0.015 | Tubastatin A 0.034 | [1] 0.007 | defactinib -0.062 | [2] 0.051 | encorafenib 0.033 | [3] -0.114 | alisertib 0.056 | [4] 0.029 | gefitinib -0.006 | lapatinib 0.035 | pictilisib 0.007 | crizotinib -0.022 | [5] -0.072 | duvelisib -0.005 | gandotinib 0.091 | tozasertib -0.065 | doramapimod 0.072 | bafetinib -0.014 | [6] 0.077

ENOSF1 (UniProt Q7L5Y1)
inactive: alvocidib 0.002 | Tubastatin A 0.022 | [1] 0.015 | defactinib -0.033 | [2] 0.077 | encorafenib -0.026 | [3] 0.08 | alisertib -0.051 | [4] 0.011 | gefitinib -0.014 | lapatinib 0 | pictilisib -0.019 | crizotinib -0.012 | [5] -0.028 | duvelisib -0.023 | gandotinib 0.005 | tozasertib 0.013 | doramapimod -0.014 | bafetinib -0.008 | [6] 0.078

EIF4E isoform 2 (UniProt P06730)
inactive: alvocidib -0.02 | Tubastatin A -0.051 | [1] -0.01 | defactinib -0.034 | [2] -0.092 | encorafenib -0.005 | [3] 0.075 | alisertib 0.01 | [4] -0.034 | gefitinib -0.014 | lapatinib 0.055 | pictilisib 0.015 | crizotinib -0.022 | [5] -0.014 | duvelisib 0.018 | gandotinib -0.008 | tozasertib 0.009 | doramapimod 0.003 | bafetinib 0.04 | [6] 0.032

EIF3A (UniProt Q14152)
inactive: alvocidib 0.003 | Tubastatin A -0.018 | [1] 0.102 | defactinib 0.022 | [2] -0.017 | encorafenib 0.022 | [3] 0.168 | alisertib 0.001 | [4] -0.009 | gefitinib -0.031 | lapatinib -0.009 | pictilisib 0.023 | crizotinib -0.037 | [5] -0.009 | duvelisib -0.031 | gandotinib -0.102 | tozasertib 0.009 | doramapimod 0.033 | bafetinib -0.043 | [6] 0.027

EPRS (UniProt P07814)
inactive: alvocidib 0.012 | Tubastatin A -0.11 | [1] 0.002 | defactinib 0.003 | [2] -0.015 | encorafenib -0.004 | [3] 0.107 | alisertib 0.015 | [4] -0.01 | gefitinib -0.032 | lapatinib -0.005 | pictilisib 0.006 | crizotinib -0.042 | [5] 0.015 | duvelisib 0.031 | gandotinib -0.069 | tozasertib 0.012 | doramapimod 0.02 | bafetinib 0.003 | [6] 0.019

ERBIN isoform 8 (UniProt Q96RT1)
inactive: alvocidib -0.01 | Tubastatin A 0.031 | [1] 0.025 | defactinib -0.031 | [2] -0.028 | encorafenib 0.013 | [3] -0.029 | alisertib -0.028 | [4] -0.001 | gefitinib 0.03 | lapatinib -0.011 | pictilisib 0.012 | crizotinib -0.026 | [5] -0.056 | duvelisib 0.005 | gandotinib 0.012 | tozasertib -0.013 | doramapimod 0.02 | bafetinib -0.002 | [6] 0.029

EMC4 (UniProt Q5J8M3)
inactive: alvocidib 0.016 | Tubastatin A 0.036 | [1] 0.054 | defactinib 0.089 | [2] -0.017 | encorafenib 0.054 | [3] -0.011 | alisertib 0.012 | [4] 0.002 | gefitinib -0.075 | lapatinib -0.026 | pictilisib 0.012 | crizotinib 0.001 | [5] 0.041 | duvelisib 0.059 | gandotinib -0.071 | tozasertib 0.069 | doramapimod 0.048 | bafetinib 0.063 | [6] 0.036

EIF3L (UniProt Q9Y262)
inactive: alvocidib 0.036 | Tubastatin A 0.017 | [1] -0.008 | defactinib -0.008 | [2] -0.013 | encorafenib -0.019 | [3] 0.032 | alisertib 0.018 | [4] -0.002 | gefitinib -0.03 | lapatinib -0.01 | pictilisib 0.002 | crizotinib -0.019 | [5] -0.015 | duvelisib -0.009 | gandotinib -0.025 | tozasertib 0.012 | doramapimod 0.003 | bafetinib 0.009 | [6] -0.012

ENTPD5 (UniProt O75356)
inactive: alvocidib -0.012 | Tubastatin A 0.035 | [1] 0.095 | defactinib -0.062 | [2] 0.026 | encorafenib 0.155 | [3] 0.005 | alisertib -0.027 | [4] 0.067 | gefitinib -0.008 | lapatinib -0.023 | pictilisib 0.001 | crizotinib 0.032 | [5] 0.066 | duvelisib -0.037 | gandotinib 0.038 | tozasertib -0.037 | doramapimod -0.019 | bafetinib -0.066 | [6] 0.019

EPHX1 (UniProt P07099)
inactive: alvocidib -0.012 | Tubastatin A -0.006 | [1] 0.019 | defactinib 0.041 | [2] -0.155 | encorafenib 0.085 | [3] -0.074 | alisertib -0.02 | [4] -0.002 | gefitinib 0 | lapatinib -0.019 | pictilisib -0.025 | crizotinib -0.014 | [5] -0.026 | duvelisib -0.01 | gandotinib 0.045 | tozasertib 0.017 | doramapimod 0.002 | bafetinib -0.027 | [6] -0.005

Fetched one by one from the list above, 2 records:
EPHX1 (UniProt P07099)
inactive: alvocidib -0.012 | Tubastatin A -0.006 | [1] 0.019 | defactinib 0.041 | [2] -0.155 | encorafenib 0.085 | [3] -0.074 | alisertib -0.02 | [4] -0.002 | gefitinib 0 | lapatinib -0.019 | pictilisib -0.025 | crizotinib -0.014 | [5] -0.026 | duvelisib -0.01 | gandotinib 0.045 | tozasertib 0.017 | doramapimod 0.002 | bafetinib -0.027 | [6] -0.005

ENTPD5 (UniProt O75356)
inactive: alvocidib -0.012 | Tubastatin A 0.035 | [1] 0.095 | defactinib -0.062 | [2] 0.026 | encorafenib 0.155 | [3] 0.005 | alisertib -0.027 | [4] 0.067 | gefitinib -0.008 | lapatinib -0.023 | pictilisib 0.001 | crizotinib 0.032 | [5] 0.066 | duvelisib -0.037 | gandotinib 0.038 | tozasertib -0.037 | doramapimod -0.019 | bafetinib -0.066 | [6] 0.019
